PubChem BioAssay AID743454, Peter MacCallum Cancer Centre – 2014

- Test: 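Knock-downs lowering viability or raising caspase 3/7 activity in vorinostat-treated resistant cells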 (primary screen)
- Cells: human HCT116-VR colon cancer cells, selected for vorinostat resistance
- Reagent: siRNA pool against human genes, 40 nM siRNA pool
- Duration: vorinostat for 24 h, read-out about 72 h after transfection
- Challenge: vorinostat at 2.5 µM final
- Read-out: 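Two measures, CellTiter-Fluor viability and luminescent caspase 3/7 activity, each as fold change against same-plate mock wells, mean of duplicates, then screen-wide robust z-score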
- Reading the numbers: viability robust z-score: higher = more viable cells than screen typical; caspase robust z-score: higher = more caspase 3/7 activity than screen typical
- Rule for the call: 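a knock-down is a hit when classed RV1 or RV2 for lowered viability, or CA1 or CA2 for caspase activation; those lethal without drug were dropped; hits were retested singly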
Here is a random part of about 18,000 reagents tested. Of all reagents, 450 (2.5%) are marked active. 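Single biological run; no consistent viability z cut-off exists, so the class columns, not z-scores, define the calls.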 Unmarked entries are inactive.

| Gene | viability hit class | caspase hit class | viability robust z-score | caspase robust z-score |
| --- | --- | --- | --- | --- |
| XPO4 | no change | no change | -1.4 | 1.64 |
| RETREG2 | no change | no change | -0.81 | -0.7 |
| ELK4 | no change | no change | -0.81 | -0.16 |
| C11orf52 | no change | no change | -1.54 | 0.66 |
| PTGER1 | no change | no change | 0.26 | 0.26 |
| PSKH2 | no change | no change | 0.16 | -0.38 |
| PLXNB3 | no change | no change | -0.26 | -0.22 |
| TRIM4 | no change (active) | CA1 (caspase activation) | -1.3 | 5.22 |
| TFF1 | no change | no change | -0.55 | 0.63 |
| PDGFRA | no change | no change | -0.04 | -0.76 |
| HP | no change | no change | 0.31 | -0.19 |
| GPAT3 | no change | no change | 1.08 | -0.41 |
| ALPI | no change | no change | -0.74 | 4.08 |
| TANGO2 | no change (active) | CA2 (caspase activation) | -1.98 | 5.37 |
| CELA2A | no change | no change | -1.94 | 2.31 |
| ZNF418 | no change | no change | -0.02 | 0.5 |
| IL1RN | no change | no change | 0.18 | -0.32 |
| WNT9A | no change | no change | 0.13 | 0.94 |
| NEK5 | no change | no change | 2.1 | -0.91 |
| DUSP5 | no change | no change | -0.54 | -0.68 |
| POLE3 | no change | no change | -2.38 | 0.48 |
| USP42 | no change | no change | 0.53 | -0.8 |
| CFLAR | no change | no change | -1.29 | -0.41 |
| VMO1 | no change | no change | -1.1 | 0 |
| HSDL2 | no change | no change | -0.53 | -0.7 |
| TMEM94 | no change | no change | -0.48 | 0.5 |
| TMEM33 | no change | no change | -0.12 | 2.95 |
| RBMS2 | no change | no change | 0.2 | 0.09 |
| MAPDA | no change | no change | 0.59 | -0.34 |
| RRP1 | no change | no change | -1.21 | 0.24 |
| GIN1 | no change | no change | -0.5 | 1.19 |
| EPHX4 | no change | no change | -0.04 | -0.3 |
| YBX2 | no change | no change | 0.99 | -0.67 |
| BPIFB3 | no change | no change | 0.49 | 0.05 |
| NUDT16L1 | no change | no change | -0.62 | -0.56 |
| PLEKHG4 | no change | no change | 0.34 | -0.9 |
| DCN | no change | no change | 0.28 | -0.04 |
| OR2B3 | no change | no change | 0.43 | -0.24 |
| PTMS | no change | no change | 1 | 2.76 |
| PPP1R15A | no change | no change | 0.78 | 0.03 |
| TMIGD1 | no change | no change | -0.06 | 2.67 |
| LMTK2 | no change | no change | 0.86 | 3.18 |

Next part; the last 2 above are carried over.
| Gene | viability hit class | caspase hit class | viability robust z-score | caspase robust z-score |
| --- | --- | --- | --- | --- |
| TMIGD1 | no change | no change | -0.06 | 2.67 |
| LMTK2 | no change | no change | 0.86 | 3.18 |
| BRMS1L | no change | no change | 0.99 | 0.54 |
| FGD5 | no change | no change | 1.06 | 1 |
| OSCAR | no change | no change | -0.29 | 1.39 |
| NUDT15 | no change (active) | CA1 (caspase activation) | -1.84 | 5.8 |
| NCAPH | no change | no change | 0.62 | 5.02 |
| PSG7 | no change | no change | 0.86 | 0.4 |
| EPCAM | no change | no change | 0.95 | -0.65 |
| MIR99AHG | no change | no change | 0.44 | -0.48 |
| EFHB | no change | no change | 0.54 | -0.78 |
| STON1-GTF2A1L | no change | no change | 0.62 | 1.52 |
| DEPDC7 | no change | no change | 1.5 | -0.2 |
| RIMKLA | no change | no change | -0.09 | 0.16 |
| NR2C2AP | no change | no change | 0.37 | -0.1 |
| HACD2 | no change | no change | -0.22 | -0.22 |
| TMEM115 | no change | no change | -1.75 | 1.62 |
| RECQL4 | no change | no change | 0.06 | 0.07 |
| NUDT22 | no change | no change | -1.38 | -0.5 |
| OGT | no change | no change | 0.67 | 0.46 |
| OR7G3 | no change | no change | 0.58 | -0.84 |
| AGFG2 | no change | no change | -0.68 | 0.68 |
| TBPL2 | no change | no change | -0.66 | -0.66 |
| LPAR2 | no change | no change | -0.57 | 1.14 |
| HAX1 | no change | no change | -0.02 | 2.2 |
| SYNJ2BP | no change | no change | -1.38 | 0.05 |
| ATP6V1G1 | no change | no change | -0.48 | -0.41 |
| S100A4 | no change | no change | -1.36 | -0.17 |
| UBXN4 | no change | no change | 0.3 | -0.24 |
| EMB | no change | no change | -0.44 | 0.62 |
| ST6GALNAC5 | no change | no change | 0.31 | 0.56 |
| RPS14 | no change | no change | -4.75 | -1.36 |
| FLNA | no change | no change | 0.6 | 3.08 |
